Results as given in US20120121591A1 (priority 2009, published 2012).

Assay: peptide synthesis
Conditions: conjugation step, 215 nm

Substance: Nα-(20 kDa PEG)-[Lys16]ShK-Ala
- final HPLC purity: >99%
